Data as given in publication PMC4028237, “GmFT2a and GmFT5a Redundantly and Differentially Regulate Flowering through Interaction with and Upregulation of the bZIP Transcription Factor GmFDL19 in Soybean”.

B1: Arabidopsis FD (GAL4 activation domain fusion, yeast two-hybrid prey) (protein, UniProt Q84JK2 1-285)
chain: MLSSAKHQRNHRLSATNKNQTLTKVSSISSSSPSSSSSSSSTSSSSPLPSQDSQAQKRSLVTMEEVWNDINLASIHHLNRHSPHPQHNHEPRFRGQNHHNQNPNSIFQDFLKGSLNQEPAPTSQTTGSAPNGDSTTVTVLYSSPFPPPATVLSLNSGAGFEFLDNQDPLVTSNSNLHTHHHLSNAHAFNTSFEALVPSSSFGKKRGQDSNEGSGNRRHKRMIKNRESAARSRARKQAYTNELELEVAHLQAENARLKRQQDQLKMAAAIQQPKKNTLQRSSTAPF
B2: Arabidopsis FD fused to the C-terminal half of YFP (BiFC) (protein, UniProt Q84JK2 1-285)
chain: MLSSAKHQRNHRLSATNKNQTLTKVSSISSSSPSSSSSSSSTSSSSPLPSQDSQAQKRSLVTMEEVWNDINLASIHHLNRHSPHPQHNHEPRFRGQNHHNQNPNSIFQDFLKGSLNQEPAPTSQTTGSAPNGDSTTVTVLYSSPFPPPATVLSLNSGAGFEFLDNQDPLVTSNSNLHTHHHLSNAHAFNTSFEALVPSSSFGKKRGQDSNEGSGNRRHKRMIKNRESAARSRARKQAYTNELELEVAHLQAENARLKRQQDQLKMAAAIQQPKKNTLQRSSTAPF

Tests used:
[1] = target: GmFT2a (GAL4 DNA-binding domain fusion, yeast two-hybrid bait) (soybean (Glycine max)) (UniProt E3NYP3); assay: two-hybrid; GmFT2a or GmFT5a in pGBKT7 as baits, FD-like proteins in pGADT7 as preys; cotransformed into yeast strain Y2H; selection on SD-Leu-Trp-His-Ade with X-alpha-gal, 30°C
[2] = target: GmFT5a (GAL4 DNA-binding domain fusion, yeast two-hybrid bait) (soybean (Glycine max)) (UniProt E3NYV9); assay: as above
[3] = target: GmFT2a fused to the N-terminal half of YFP (BiFC) (soybean (Glycine max)); assay: split reporter; BiFC: FTs fused to the N-terminal half (YN) and FDs to the C-terminal half (YC) of YFP, cotransformed into Arabidopsis protoplasts; YFP fluorescence by confocal microscopy
[4] = target: GmFT5a fused to the N-terminal half of YFP (BiFC) (soybean (Glycine max)); assay: as above

Binder | binding [1] | binding [2] | binding [3] | binding [4]
B1 | binds | binds |  | 
B2 |  |  | binds | binds

These are yes or no findings as the source states them, for the method shown. Binding calls can cover weak binding; strength is not graded here. Tags and fused reporters may be left off the sequences shown. For some of these results: Binding seen in cells or lysates may run through a third protein.
